Measured values as given in patent US9044403B2, “Sporicidal hand sanitizing lotion” (Medivators Inc., priority 2008, dated 2015).
Some results were stated once for a whole list of compounds, not compound by compound. For at least one compound, name, drawing or mass did not settle the structure.

Experiment: Fragrance screen for chemical compatibility with a PAA solution
Format: physicochemical
Conditions: fragrance tested with a PAA solution
Experimental: A number of fragrances were tested with a PAA solution to screen for chemical compatibility. […] Additionally, “Blackberry Sage Tea” fragrance in combination with the vinegar-like order from the PAA in the sample was not appealing to volunteers who agreed to sample the sample lotion formulation.

C=C(C)[C@H]1CC=C(C)CC1 [d-limonene]
Time within which the fragrance degrades PAA: 3 to 5 days
